Data: the supplement of paper PMC11732987, “Enantioselective OTUD7B fragment discovery through chemoproteomics screening and high-throughput optimisation” (Communications Chemistry, 2025)
This is one part of the list. The data scatter; read single values as rough.

The chains behind the UniProt entries cited, without tags or fusion partners. Where a name states a change or a piece, a line headed by the entry shows the natural chain unless it says otherwise.
UniProt Q03164, whole entry, looked up: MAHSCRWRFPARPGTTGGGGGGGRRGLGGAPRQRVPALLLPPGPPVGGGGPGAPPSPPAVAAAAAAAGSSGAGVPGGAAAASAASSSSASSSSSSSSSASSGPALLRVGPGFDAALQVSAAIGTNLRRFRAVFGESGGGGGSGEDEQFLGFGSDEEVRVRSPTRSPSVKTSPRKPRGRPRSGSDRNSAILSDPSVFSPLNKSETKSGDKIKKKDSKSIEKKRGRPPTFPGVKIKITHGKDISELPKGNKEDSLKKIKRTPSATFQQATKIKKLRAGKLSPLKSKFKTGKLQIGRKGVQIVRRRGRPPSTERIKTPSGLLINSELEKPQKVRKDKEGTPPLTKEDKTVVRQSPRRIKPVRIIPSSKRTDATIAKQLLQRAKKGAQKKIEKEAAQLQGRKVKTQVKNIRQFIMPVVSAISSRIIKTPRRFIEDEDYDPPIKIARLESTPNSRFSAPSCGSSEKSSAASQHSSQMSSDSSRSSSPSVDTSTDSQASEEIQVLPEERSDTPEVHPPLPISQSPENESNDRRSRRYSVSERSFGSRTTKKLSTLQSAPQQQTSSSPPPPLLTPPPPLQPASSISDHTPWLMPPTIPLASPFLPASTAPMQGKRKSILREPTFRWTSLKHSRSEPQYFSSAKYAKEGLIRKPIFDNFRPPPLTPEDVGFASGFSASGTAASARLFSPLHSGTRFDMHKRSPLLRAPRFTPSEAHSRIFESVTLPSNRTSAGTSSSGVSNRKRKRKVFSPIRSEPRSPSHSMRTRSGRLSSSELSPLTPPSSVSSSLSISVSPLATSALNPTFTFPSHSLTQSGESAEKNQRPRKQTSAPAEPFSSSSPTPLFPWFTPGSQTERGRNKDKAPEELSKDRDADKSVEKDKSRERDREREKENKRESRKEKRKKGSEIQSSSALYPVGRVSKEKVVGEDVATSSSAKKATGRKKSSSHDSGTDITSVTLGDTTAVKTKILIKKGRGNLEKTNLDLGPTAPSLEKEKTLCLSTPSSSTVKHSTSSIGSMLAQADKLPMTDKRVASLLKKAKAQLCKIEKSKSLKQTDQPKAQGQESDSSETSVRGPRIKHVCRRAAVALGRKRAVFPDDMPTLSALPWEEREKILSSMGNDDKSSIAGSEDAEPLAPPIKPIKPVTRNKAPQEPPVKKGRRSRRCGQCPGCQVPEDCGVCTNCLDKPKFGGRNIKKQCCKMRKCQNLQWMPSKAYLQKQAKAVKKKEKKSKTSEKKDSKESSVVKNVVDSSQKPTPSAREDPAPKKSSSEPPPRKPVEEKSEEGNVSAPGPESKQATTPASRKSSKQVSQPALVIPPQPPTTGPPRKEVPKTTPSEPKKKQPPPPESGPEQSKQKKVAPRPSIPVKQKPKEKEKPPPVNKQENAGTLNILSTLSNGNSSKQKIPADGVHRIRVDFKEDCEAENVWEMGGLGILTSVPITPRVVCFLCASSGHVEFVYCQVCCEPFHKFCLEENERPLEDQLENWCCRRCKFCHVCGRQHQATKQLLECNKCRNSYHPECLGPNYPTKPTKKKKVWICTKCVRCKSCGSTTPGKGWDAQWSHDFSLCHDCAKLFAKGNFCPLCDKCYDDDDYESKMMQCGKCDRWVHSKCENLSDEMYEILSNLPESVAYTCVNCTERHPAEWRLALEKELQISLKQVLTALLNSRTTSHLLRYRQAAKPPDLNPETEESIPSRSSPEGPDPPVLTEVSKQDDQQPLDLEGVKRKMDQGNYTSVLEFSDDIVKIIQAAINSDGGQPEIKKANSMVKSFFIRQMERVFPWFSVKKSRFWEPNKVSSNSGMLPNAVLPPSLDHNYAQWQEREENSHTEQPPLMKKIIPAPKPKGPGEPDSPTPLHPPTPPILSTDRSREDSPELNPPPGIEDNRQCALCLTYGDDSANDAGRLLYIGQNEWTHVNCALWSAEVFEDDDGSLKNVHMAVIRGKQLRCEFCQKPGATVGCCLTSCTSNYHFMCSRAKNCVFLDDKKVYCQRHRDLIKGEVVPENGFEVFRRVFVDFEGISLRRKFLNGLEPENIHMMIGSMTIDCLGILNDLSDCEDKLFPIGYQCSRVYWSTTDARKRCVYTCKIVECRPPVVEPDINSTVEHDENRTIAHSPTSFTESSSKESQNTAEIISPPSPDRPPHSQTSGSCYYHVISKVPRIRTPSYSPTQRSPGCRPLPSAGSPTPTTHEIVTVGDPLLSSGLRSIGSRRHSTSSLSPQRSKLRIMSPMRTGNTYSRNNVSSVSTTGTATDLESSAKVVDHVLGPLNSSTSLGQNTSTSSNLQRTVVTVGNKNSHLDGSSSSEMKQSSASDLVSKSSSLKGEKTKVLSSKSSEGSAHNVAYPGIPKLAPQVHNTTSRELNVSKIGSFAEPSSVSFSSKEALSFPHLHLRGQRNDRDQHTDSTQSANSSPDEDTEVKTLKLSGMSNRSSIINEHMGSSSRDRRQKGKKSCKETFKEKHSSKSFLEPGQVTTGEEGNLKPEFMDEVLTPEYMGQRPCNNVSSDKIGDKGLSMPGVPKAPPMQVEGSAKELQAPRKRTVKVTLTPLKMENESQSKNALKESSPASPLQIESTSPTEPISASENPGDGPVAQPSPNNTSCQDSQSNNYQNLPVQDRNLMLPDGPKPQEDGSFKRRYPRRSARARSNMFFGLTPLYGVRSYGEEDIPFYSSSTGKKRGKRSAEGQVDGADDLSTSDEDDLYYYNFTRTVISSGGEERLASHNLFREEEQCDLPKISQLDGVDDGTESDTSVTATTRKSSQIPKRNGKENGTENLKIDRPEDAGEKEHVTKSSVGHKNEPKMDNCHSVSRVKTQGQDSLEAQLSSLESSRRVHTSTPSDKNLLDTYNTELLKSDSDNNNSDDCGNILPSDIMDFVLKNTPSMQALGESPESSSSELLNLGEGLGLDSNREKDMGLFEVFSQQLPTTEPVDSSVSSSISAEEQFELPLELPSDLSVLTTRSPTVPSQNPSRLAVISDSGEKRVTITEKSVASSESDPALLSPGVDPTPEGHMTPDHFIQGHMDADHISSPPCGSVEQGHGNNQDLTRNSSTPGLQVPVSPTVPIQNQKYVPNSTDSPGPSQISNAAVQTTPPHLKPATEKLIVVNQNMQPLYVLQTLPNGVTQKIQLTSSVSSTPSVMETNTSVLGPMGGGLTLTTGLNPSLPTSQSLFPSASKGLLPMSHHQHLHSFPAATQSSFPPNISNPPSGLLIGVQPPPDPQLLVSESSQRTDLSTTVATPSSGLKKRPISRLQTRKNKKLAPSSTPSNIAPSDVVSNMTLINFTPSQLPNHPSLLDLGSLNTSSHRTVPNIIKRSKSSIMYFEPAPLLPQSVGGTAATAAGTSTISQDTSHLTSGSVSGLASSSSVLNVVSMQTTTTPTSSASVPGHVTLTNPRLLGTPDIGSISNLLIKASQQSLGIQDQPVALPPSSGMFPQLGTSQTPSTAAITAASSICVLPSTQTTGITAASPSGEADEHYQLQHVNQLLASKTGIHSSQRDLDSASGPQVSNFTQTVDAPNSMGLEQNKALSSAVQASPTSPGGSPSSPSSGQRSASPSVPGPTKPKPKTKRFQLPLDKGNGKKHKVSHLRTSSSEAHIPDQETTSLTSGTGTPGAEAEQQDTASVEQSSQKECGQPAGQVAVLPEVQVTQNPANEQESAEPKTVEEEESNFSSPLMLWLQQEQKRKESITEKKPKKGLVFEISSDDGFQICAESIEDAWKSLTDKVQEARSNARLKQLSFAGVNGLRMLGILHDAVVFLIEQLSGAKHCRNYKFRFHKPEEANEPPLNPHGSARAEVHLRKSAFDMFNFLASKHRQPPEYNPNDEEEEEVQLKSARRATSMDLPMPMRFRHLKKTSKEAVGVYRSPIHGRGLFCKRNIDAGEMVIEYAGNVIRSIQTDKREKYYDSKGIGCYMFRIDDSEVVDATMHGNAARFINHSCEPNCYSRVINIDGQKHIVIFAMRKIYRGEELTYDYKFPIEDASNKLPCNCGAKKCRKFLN
UniProt Q13601: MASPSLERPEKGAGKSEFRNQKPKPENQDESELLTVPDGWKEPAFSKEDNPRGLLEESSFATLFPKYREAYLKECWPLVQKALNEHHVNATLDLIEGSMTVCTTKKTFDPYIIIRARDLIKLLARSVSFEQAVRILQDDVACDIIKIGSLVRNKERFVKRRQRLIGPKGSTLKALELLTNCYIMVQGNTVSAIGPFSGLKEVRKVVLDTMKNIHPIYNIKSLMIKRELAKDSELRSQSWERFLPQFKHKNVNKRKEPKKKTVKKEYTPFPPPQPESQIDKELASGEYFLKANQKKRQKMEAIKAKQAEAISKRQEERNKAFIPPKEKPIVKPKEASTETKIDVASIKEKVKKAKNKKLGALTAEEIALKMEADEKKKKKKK
UniProt P50748: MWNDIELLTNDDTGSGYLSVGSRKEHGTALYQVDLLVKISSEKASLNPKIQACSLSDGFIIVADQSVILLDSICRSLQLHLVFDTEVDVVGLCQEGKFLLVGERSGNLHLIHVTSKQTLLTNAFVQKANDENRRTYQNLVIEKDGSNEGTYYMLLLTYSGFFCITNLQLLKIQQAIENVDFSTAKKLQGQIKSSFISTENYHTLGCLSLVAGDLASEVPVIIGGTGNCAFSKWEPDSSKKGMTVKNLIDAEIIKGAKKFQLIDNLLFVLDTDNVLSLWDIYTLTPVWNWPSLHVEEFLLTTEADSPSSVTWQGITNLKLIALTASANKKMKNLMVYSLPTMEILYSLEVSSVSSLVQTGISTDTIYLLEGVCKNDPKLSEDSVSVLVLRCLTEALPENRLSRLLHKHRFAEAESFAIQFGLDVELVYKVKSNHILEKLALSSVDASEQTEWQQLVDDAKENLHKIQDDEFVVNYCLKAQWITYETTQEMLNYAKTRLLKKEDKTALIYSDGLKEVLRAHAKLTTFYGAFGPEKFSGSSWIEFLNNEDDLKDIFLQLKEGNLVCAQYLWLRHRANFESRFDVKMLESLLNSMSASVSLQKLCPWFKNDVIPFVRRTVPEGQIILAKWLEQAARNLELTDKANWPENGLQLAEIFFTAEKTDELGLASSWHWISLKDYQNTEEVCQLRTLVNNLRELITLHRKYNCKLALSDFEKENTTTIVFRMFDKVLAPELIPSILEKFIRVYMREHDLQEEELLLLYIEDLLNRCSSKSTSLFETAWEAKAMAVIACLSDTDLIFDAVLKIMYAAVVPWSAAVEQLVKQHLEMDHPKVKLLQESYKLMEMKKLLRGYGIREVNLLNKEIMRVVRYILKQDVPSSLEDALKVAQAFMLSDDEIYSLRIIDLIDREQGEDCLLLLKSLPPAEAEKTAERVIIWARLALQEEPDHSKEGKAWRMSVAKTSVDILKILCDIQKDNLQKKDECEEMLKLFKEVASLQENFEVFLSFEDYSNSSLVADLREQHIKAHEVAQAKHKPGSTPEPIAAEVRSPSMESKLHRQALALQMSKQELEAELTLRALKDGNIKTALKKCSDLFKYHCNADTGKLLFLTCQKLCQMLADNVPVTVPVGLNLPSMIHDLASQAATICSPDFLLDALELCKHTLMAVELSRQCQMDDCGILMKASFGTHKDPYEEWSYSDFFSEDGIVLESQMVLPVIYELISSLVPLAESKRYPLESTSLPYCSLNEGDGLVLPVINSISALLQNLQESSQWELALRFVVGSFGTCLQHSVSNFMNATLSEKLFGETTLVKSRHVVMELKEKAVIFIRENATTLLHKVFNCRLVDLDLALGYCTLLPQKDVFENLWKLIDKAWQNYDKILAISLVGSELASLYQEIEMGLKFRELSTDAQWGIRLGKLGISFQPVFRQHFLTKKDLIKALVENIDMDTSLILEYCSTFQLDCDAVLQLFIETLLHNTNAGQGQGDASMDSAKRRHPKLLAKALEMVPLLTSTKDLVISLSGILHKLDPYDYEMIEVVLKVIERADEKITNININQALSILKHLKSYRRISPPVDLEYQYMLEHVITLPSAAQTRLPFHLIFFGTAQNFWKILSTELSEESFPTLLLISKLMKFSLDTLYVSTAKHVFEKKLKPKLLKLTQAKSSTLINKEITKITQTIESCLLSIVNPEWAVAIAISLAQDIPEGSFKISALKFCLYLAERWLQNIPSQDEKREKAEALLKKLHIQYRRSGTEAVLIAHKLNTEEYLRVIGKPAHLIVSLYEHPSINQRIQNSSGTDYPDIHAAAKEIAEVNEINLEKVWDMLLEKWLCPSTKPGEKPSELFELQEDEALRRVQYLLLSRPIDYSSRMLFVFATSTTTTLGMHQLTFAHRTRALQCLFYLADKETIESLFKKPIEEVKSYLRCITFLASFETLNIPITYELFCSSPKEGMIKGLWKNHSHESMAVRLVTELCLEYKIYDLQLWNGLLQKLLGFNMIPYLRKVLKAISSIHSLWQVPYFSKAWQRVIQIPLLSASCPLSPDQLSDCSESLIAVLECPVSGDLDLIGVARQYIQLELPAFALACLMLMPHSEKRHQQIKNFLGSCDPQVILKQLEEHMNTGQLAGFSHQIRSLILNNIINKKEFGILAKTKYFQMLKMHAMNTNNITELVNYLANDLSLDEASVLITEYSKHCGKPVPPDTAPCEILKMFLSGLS

Columns and labels:
[1] = compound: ClCC(=O)N[C@@H]1CCCc2ccccc12; assay: log2 mean competition ratio of IA-DTB cysteine labelling (DMSO/compound) (log2 ratio); higher = stronger cysteine engagement by compound; conditions: treatment time: 4 h, cell line lysate: HEK293T
Method: (§1)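 IA-DTB competitive cysteine chemoproteomics in HEK293T RIPA lysate. Lysates were treated with compound 29 or 30 at 50 or 200 µM for 4 h, then IA-DTB (500 µM, 1 h), trypsin-digested, NeutrAvidin-enriched and analysed by diaPASEF. Competition ratio = intensity DMSO / intensity compound (n=4 treated, n=64 DMSO); binding: mean log2 CR ≥ 1 and p ≤ 0.05 plus QC filters. Target is the cysteine site.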

[2] = compound: ClCC(=O)N[C@H]1CCCc2ccccc12; assay: as above; conditions: treatment time: 4 h, cell line lysate: HEK293T
Method: as §1

Row | Target | log2 mean competition ratio ([1]; 50 µM) | log2 mean competition ratio ([1]; 200 µM) | log2 mean competition ratio ([2]; 50 µM) | log2 mean competition ratio ([2]; 200 µM)
1 | KMT2D C1909 (UniProt O14686) | 0.112 | -0.0881 | 0.322 | -0.127
2 | KLHL20 C25 (UniProt Q9Y2M5) | -0.0851 | 0.173 | -0.324 | -0.0432
3 | LMAN2 C239 (UniProt Q12907) | 0.0834 | 0.0707 | 0.24 | -0.0659
4 | KLHL23 C245 | -0.039 | 0.00557 | -0.0685 | 0.475
5 | LARP1B C838, A0A3B3ISF0 | 0.486 | 0.0425 | -0.255 | 0.0744
6 | LAP3 C445 (UniProt P28838) | -0.604 | 0.145 | -0.189 | 0.24
7 | LDLRAP1 C199 (UniProt Q5SW96) | -0.539 | 0.0801 | -0.348 | 0.22
8 | LONP2 C372 (UniProt Q86WA8) | 0.146 | -0.269 | 0.172 | -0.302
9 | LIMCH1 C863 (UniProt Q9UPQ0) | -0.118 | -0.0108 | -0.152 | 0.13
10 | LAMP1 C338 (UniProt P11279) | 0.12 | 0.321 | 0.0677 | 0.261
11 | KLRG2 C197 | -0.213 | 0.321 | -0.0869 | 0.386
12 | KNL1 C1881 (UniProt Q8NG31) | -0.109 | -0.0172 | -0.0605 | 0.122
13 | LRCH2 C507 | -0.251 | -0.000438 | 0.0107 | 0.155
14 | LMBRD2 C267 (UniProt Q68DH5) | -0.0276 | 0.00464 | 0.0622 | 0.0351
15 | KMT2A C990 (UniProt Q03164) | 0.105 | -0.0911 | 0.00153 | -0.229
16 | LIG3 C499 (UniProt P49916) | 0.535 | 0.224 | 0.319 | 0.122
17 | KYAT3 C337 (UniProt Q6YP21) | 0.231 | 0.0283 | -0.0508 | -0.11
18 | KNOP1 C184 (UniProt Q1ED39) | -0.251 | 0.126 | 0.0276 | 0.33
19 | KLC1 C320 (UniProt Q07866) | -0.00814 | 0.287 | 0.0616 | 0.236
20 | KIFAP3 C78 (UniProt Q92845) | -0.235 | 0.198 | -0.0627 | 0.00677
21 | KRR1 C75 (UniProt Q13601) | 0.0305 | -0.229 | 0.396 | -0.217
22 | KLHL7 C259 (UniProt Q8IXQ5) | 0.052 | 0.0359 | 0.374 | 0.0362
23 | KPNA1 C298 (UniProt P52294) | -0.133 | -0.291 | -0.0038 | -0.397

Row | Target | log2 mean competition ratio ([1]; 50 µM) | log2 mean competition ratio ([1]; 200 µM) | log2 mean competition ratio ([2]; 50 µM) | log2 mean competition ratio ([2]; 200 µM)
24 | LIAS C106 (UniProt O43766) | -0.417 | 0.43 | 0.0861 | 0.104
25 | KIF7 C179 | -0.122 | -0.369 | 0.682 | -0.168
26 | KMT2A C456 (UniProt Q03164) | -0.0603 | 0.00465 | -0.0259 | -0.0154
27 | KMT2D C392 (UniProt O14686) | -0.258 | 0.268 | 0.0512 | -0.0244
28 | LCLAT1 C336 (UniProt Q6UWP7) | 0.531 | 0.103 | 0.445 | 0.221
29 | L3MBTL2 C531 (UniProt Q969R5) | 0.243 | 0.0615 | -0.0487 | -0.0124
30 | LENG8 C500 (UniProt Q96PV6) | -0.0558 | 0.434 | -0.164 | 0.443
31 | LAS1L C316 (UniProt Q9Y4W2) | 0.0617 | 0.194 | 0.0503 | 0.272
32 | LOC102724159 C24 | 0.523 | 0.168 | 0.781 | 0.302
33 | KLHL11 C570 (UniProt Q9NVR0) | -0.0177 | -0.0262 | 0.145 | -0.16
34 | KMT2A C1575 (UniProt Q03164) | 0.0662 | 0.452 | -0.607 | 0.253
35 | KPNA6 C139 (UniProt O60684) | 0.127 | 0.191 | 0.247 | -0.264
36 | LLGL1 C915 (UniProt Q15334) | -0.0981 | 0.107 | -0.0434 | 0.0496
37 | KNL1 C849 (UniProt Q8NG31) | 0.121 | 0.317 | 0.152 | 0.141
38 | LPIN3 C711 (UniProt Q9BQK8) | -0.104 | -0.109 | -0.135 | 0.0283
39 | LIN28B C107 (UniProt Q6ZN17) | 0.0976 | 0.0286 | 0.227 | 0.0246
40 | LOC102724159 C158 | 0.188 | 0.067 | 0.127 | 0.0035
41 | LOC100421372 C210 | -0.0378 | 0.0455 | 0.0294 | 0.107
42 | KNTC1 C390 (UniProt P50748) | 0.0551 | 0.184 | -0.385 | -0.195
43 | LIN7A C62 (UniProt O14910) | 0.0952 | -0.127 | 0.0289 | -0.137
44 | KIN C212 (UniProt O60870) | -0.0417 | -0.0797 | 0.00762 | -0.212
45 | LGMN C219 (UniProt Q99538) | -0.0327 | -0.215 | 0.0226 | -0.18
46 | KNL1 C562 (UniProt Q8NG31) | 0.134 | 0.0696 | -0.259 | -0.126

Row | Target | log2 mean competition ratio ([1]; 50 µM) | log2 mean competition ratio ([1]; 200 µM) | log2 mean competition ratio ([2]; 50 µM) | log2 mean competition ratio ([2]; 200 µM)
47 | KPNB1 C765 | -0.117 | -0.524 | -0.39 | -0.617
48 | LIMK1 C208 (UniProt P53667) | -0.249 | -0.275 | 0.191 | -0.0312
49 | LRCH2 C265 | -0.0322 | -0.129 | 0.229 | -0.169
50 | LENG8 C450 (UniProt Q96PV6) | 0.232 | -0.185 | 0.0504 | -0.182
51 | LIG4 C510 (UniProt P49917) | -0.149 | 0.000745 | -0.16 | 0.185
52 | KNTC1 C1107 (UniProt P50748) | 0.216 | -0.0408 | -0.15 | -0.0189
53 | KPNA4 C57 (UniProt O00629) | -0.293 | -0.109 | -0.66 | -0.0941
54 | LCMT2 C408 (UniProt O60294) | 0.104 | 0.131 | 0.142 | -0.103
55 | KLHL7 C306 (UniProt Q8IXQ5) | 0.0202 | -0.078 | -0.2 | -0.218
56 | KMT2E C839 (UniProt Q8IZD2) | 0.138 | 0.242 | 0.237 | 0.423
57 | LIN28B C187 (UniProt Q6ZN17) | -0.229 | 0.086 | 0.152 | 0.18
58 | LIMCH1 C577 (UniProt Q9UPQ0) | 0.028 | -0.109 | -0.148 | -0.188
59 | KYAT3 C416 (UniProt Q6YP21) | -0.00358 | -0.0771 | -0.323 | -0.0311
60 | KNL1 C1301 (UniProt Q8NG31) | 0.0613 | 0.0457 | -0.162 | 0.0517
61 | KPNB1 C543 | -0.115 | -0.263 | 0.167 | -0.113
62 | LOC102724159 C60 | -0.172 | 0.0755 | -0.107 | -0.0194
63 | KIF7 C409 | 0.08 | 0.638 | 0.134 | 0.621
64 | LDLR C667 (UniProt P01130) | -0.21 | 0.108 | 0.269 | 0.404
65 | LIFR C889 (UniProt P42702) | 0.17 | -0.125 | 0.349 | 0.0926
66 | KIFC1 C95 (UniProt Q9BW19) | 0.295 | -0.0686 | 0.221 | 0.0761
67 | LANCL2 C187 (UniProt Q9NS86) | -0.241 | 0.0957 | -0.144 | 0.0553
68 | LRPPRC C848 | -0.248 | 0.24 | -0.728 | 0.239

Quoted from the listing.
log2 mean competition ratio ([1]; 50 µM) with KNTC1 C1107 (UniProt P50748) is entered as 0.216
log2 mean competition ratio ([2]; 200 µM) with KIFC1 C95 (UniProt Q9BW19) is entered as 0.0761
